Reference: patent US20100184699A1, “Peptide Derived From Prostate-Related Protein As Cancer Vaccine Candidate For Prostate Cancer Patient Who Is Positive For Hla-A3 Super-Type Allele Molecule” (priority 2005, published 2010)
Not every detail of the peptide structures is certain; ends, links or a residue may be inferred. Some entries repeat one wording, which the source may state once for all of them. Peptide text beside a SMILES is read from it.

Tested on: peptide-specific IgG in plasma of prostate cancer patients and healthy donors
Experiment: Detection of peptide-specific IgG in plasma by ELISA
Type: binding, human
Conditions: for IgG reactive to peptide in plasma: 1:100-diluted plasma

CC(C)C[C@H](NC(=O)[C@@H](N)Cc1ccc(O)cc1)C(=O)N1CCC[C@H]1C(=O)N[C@@H](Cc1ccccc1)C(=O)N[C@@H](CCCNC(=N)N)C(=O)N[C@@H](CC(N)=O)C(=O)N[C@@H](CS)C(=O)N1CCC[C@H]1C(=O)N[C@@H](CCCNC(=N)N)C(=O)O [PAP 155-163] (H-YLPFRNCPR-OH)
IgG reactive to peptide in plasma (Healthy donor 9, A11): + (IgG reactive to a corresponding peptide was judged to be positive when a difference of the optical density (OD) in a 1:100-diluted plasma was more than 100) | IgG reactive to peptide in plasma (Healthy donor 11, A3): + (IgG reactive to a corresponding peptide was judged to be positive when a difference of the optical density (OD) in a 1:100-diluted plasma was more than 100) | IgG reactive to peptide in plasma, Total (positive/tested) (Healthy donors): 2/9 | IgG reactive to peptide in plasma (Prostate cancer patient 1, A31): + (IgG reactive to a corresponding peptide was judged to be positive when a difference of the optical density (OD) in a 1:100-diluted plasma was more than 100) | IgG reactive to peptide in plasma (Prostate cancer patient 9, A11): + (IgG reactive to a corresponding peptide was judged to be positive when a difference of the optical density (OD) in a 1:100-diluted plasma was more than 100) | IgG reactive to peptide in plasma (Prostate cancer patient 10, A11): + (IgG reactive to a corresponding peptide was judged to be positive when a difference of the optical density (OD) in a 1:100-diluted plasma was more than 100) | IgG reactive to peptide in plasma (Prostate cancer patient 13, A11): + (IgG reactive to a corresponding peptide was judged to be positive when a difference of the optical density (OD) in a 1:100-diluted plasma was more than 100) | IgG reactive to peptide in plasma (Prostate cancer patient 14, A33): + (IgG reactive to a corresponding peptide was judged to be positive when a difference of the optical density (OD) in a 1:100-diluted plasma was more than 100) | IgG reactive to peptide in plasma (Prostate cancer patient 16, A33): + (IgG reactive to a corresponding peptide was judged to be positive when a difference of the optical density (OD) in a 1:100-diluted plasma was more than 100) | IgG reactive to peptide in plasma, Total (positive/tested) (Prostate cancer patients): 6/20 | level of peptide-reactive IgG after absorption (patient plasma incubated in wells coated with the corresponding peptide (FIG. 2)): significantly diminished | frequency of detection of peptide-reactive IgG (plasma of prostate cancer patients, compared within PSA, PAP or PSMA peptides): more frequently
